PubChem BioAssay AID1259405, NCATS, 2018
This is one part, drawn at random, of about 50,000 reagents tested. About 4,000 of them (8%) were called active. 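Mouse siRNA library applied to hamster cells; one well for each siRNA.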 The numbers tell different reagents against one gene apart. Reagent sequences are not shown.

Aim: 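Knock-downs that lift recombinant protein yield in hamster ovary cells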 (primary screen)
System: Chinese hamster CHO-K1 ovary cells with stable secreted eGFP expression
Knock-down reagent: single siRNA against mouse genes, 0.8 pmol siRNA per well (2 µl of 400 nM stock)
Time to read-out: 3 days
Detection: 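Percent of the per-plate non-targeting control median for intracellular GFP per well by laser scanning cytometry and for cell viability by ATP luminescence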
Scale: GFP, % of control: higher = more GFP per well, higher productivity; viability (ATP), % of control: higher = more viable cells (more ATP)
Hit rule: 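Called active when intracellular GFP, relative to negative control, is at or above 120%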

With knock-down of Gpr153 #1, the record shows GFP, % of control 40.8; viability (ATP), % of control 64.9; inactive.
After knock-down of Gpr153 #2, the record shows GFP, % of control 131; viability (ATP), % of control 102; active.
Vmn1r199 #1 gave GFP, % of control 80.4; viability (ATP), % of control 76.4; inactive.
After knock-down of Vmn1r199 #2 the results were GFP, % of control 74.4; viability (ATP), % of control 81.8; inactive.
For Vmn1r199 #3 the deposit lists GFP, % of control 97.7; viability (ATP), % of control 114; inactive.
For Mtor, the values are GFP, % of control 69.5; viability (ATP), % of control 38.3; inactive.
Against Or2b7 #1, the values are GFP, % of control 49.9; viability (ATP), % of control 68.8; inactive.
After knock-down of Or2b7 #2 the results were GFP, % of control 83.6; viability (ATP), % of control 83.2; inactive.
With knock-down of Or2b7 #3, the record shows GFP, % of control 38.5; viability (ATP), % of control 68.7; inactive.
For Pde12 #1, the entry reads GFP, % of control 64.6; viability (ATP), % of control 88.1; inactive.
For Pde12 #2, the values are GFP, % of control 85.5; viability (ATP), % of control 62.3; inactive.
After knock-down of Pde12 #3 the results were GFP, % of control 89.6; viability (ATP), % of control 84.4; inactive.
With knock-down of Enpp2 #1, the record shows GFP, % of control 94; viability (ATP), % of control 79.8; inactive.
After knock-down of Enpp2 #2 the results were GFP, % of control 83.5; viability (ATP), % of control 49.5; inactive.
For Haus7 #1, the entry reads GFP, % of control 86.3; viability (ATP), % of control 91.4; inactive.
After knock-down of Haus7 #2, the screen gave GFP, % of control 56.4; viability (ATP), % of control 61.1; inactive.
For Haus7 #3, the entry reads GFP, % of control 44.3; viability (ATP), % of control 42.3; inactive.

Looked up above:
Mtor, viability (ATP), % of control = 38.3
Pde12 #2, GFP, % of control = 85.5
Haus7 #2, GFP, % of control → 56.4
